No constants are given. Whether binding was seen depends on the method and setting. In cells and extracts the contact can be indirect. A result given as binding can be weak or reduced; the word gives no strength. Where a sequence is shown, tags or fusion partners need not be part of it.
Target: T1, Dual specificity mitogen-activated protein kinase kinase 3, Flag-tagged (human) (UniProt P46734)
T1 sequence: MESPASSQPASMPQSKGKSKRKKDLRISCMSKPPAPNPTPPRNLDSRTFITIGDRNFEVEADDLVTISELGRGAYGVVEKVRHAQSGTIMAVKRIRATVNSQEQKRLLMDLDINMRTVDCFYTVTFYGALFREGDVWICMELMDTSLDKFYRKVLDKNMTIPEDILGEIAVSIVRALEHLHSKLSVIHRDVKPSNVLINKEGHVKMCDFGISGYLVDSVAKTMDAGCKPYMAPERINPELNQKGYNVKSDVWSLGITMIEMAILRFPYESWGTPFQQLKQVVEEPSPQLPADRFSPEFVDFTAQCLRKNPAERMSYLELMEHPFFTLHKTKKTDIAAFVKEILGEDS
Assay: co-IP; Lysates (IP lysis buffer) of HEK293T cells transfected with Flag-MKK3 or HA-MKK6; immunoprecipitation with anti-Flag or anti-HA at 4°C overnight; western blot for p38 and phospho-p38; cells with or without capsaicin (75 μM)

- binding: binds
Substance: Mitogen-Activated Protein Kinase P38 (human (endogenous in HEK293T)) (enzyme)
